Construct, isoform or probe ends are uncertain for at least one entry. Results from cells or extracts need not show a direct contact. For some assays here: A negative result means that nothing was seen under these conditions. For some assays here: At least one verdict rests on a figure or table, not on a statement of the authors.
Experiments:
[1] = target: QM-GFP (quadruple mutant U-STAT1) R274W,T385A,R602L,Y701F (Homo sapiens) (UniProt P42224); assay: EMSA; conditions: 4 ul cell extract + 8 ul EMSA reaction buffer (composition and pH not given) with 1 ng 33P probe, 15 min RT, 4.8% 29:1 acrylamide gel at 4 C, 400 V, protein in a lysate after overexpression, residues 1-746, protein details: C-terminal GFP, label: 33P (Klenow end-fill)
[2] = target: R602L/Y701F-GFP (mutant U-STAT1) (Homo sapiens) (UniProt P42224); assay: EMSA; conditions: IFNg, co-expressed with untagged WT, no GFP-tagged STAT1 band; 4 ul cell extract + 8 ul EMSA reaction buffer (composition and pH not given) with 1 ng 33P probe, 15 min RT; 4.8% 29:1 acrylamide gel at 4 C, 400 V; protein in a lysate after overexpression; residues 1-746; protein details: C-terminal GFP; label: 33P (Klenow end-fill)
[3] = target: STAT1alpha WT, untagged (IFNg-stimulated, pY701) (Homo sapiens) (UniProt P42224); assay: EMSA; conditions: IFNg, binding irrespective of co-expressed mutant U-STAT1; 4 ul cell extract + 8 ul EMSA reaction buffer (composition and pH not given) with 1 ng 33P probe, 15 min RT; 4.8% 29:1 acrylamide gel at 4 C, 400 V; protein in a lysate after overexpression; label: 33P (Klenow end-fill)
[4] = target: STAT1alpha WT-GFP (IFNg-stimulated, pY701) (Homo sapiens) (UniProt P42224); assay: EMSA; conditions: IFNg, co-expressed with untagged WT; 4 ul cell extract + 8 ul EMSA reaction buffer (composition and pH not given) with 1 ng 33P probe, 15 min RT; 4.8% 29:1 acrylamide gel at 4 C, 400 V; protein in a lysate after overexpression; residues 1-746; protein details: C-terminal GFP; label: 33P (Klenow end-fill)
[5] = target: endogenous STAT1 (IFNg-stimulated, pY701) (UniProt P42224); assay: EMSA; conditions: IFNg, cytoplasmic and nuclear fractions of HeLa expressing QM-GFP; 4 ul cell extract + 8 ul EMSA reaction buffer (composition and pH not given) with 1 ng 33P probe, 15 min RT; 4.8% 29:1 acrylamide gel at 4 C, 400 V; protein in an extract; label: 33P (Klenow end-fill)
[6] = test system: STAT1alpha WT-GFP (IFNg-stimulated, pY701) + endogenous STAT1 (IFNg-stimulated, pY701); assay: EMSA supershift; conditions: IFNg 45 min, mixed tetramers of varying stoichiometry; 4 ul cell extract + 8 ul EMSA reaction buffer (composition and pH not given) with 1 ng 33P probe, 15 min RT; 4.8% 29:1 acrylamide gel at 4 C, 400 V; protein in a lysate after overexpression; protein details: C-terminal GFP,none; label: 33P (Klenow end-fill)
[7] = target: endogenous STAT1 (IFNg-stimulated, pY701) (UniProt P42224); assay: EMSA supershift; conditions: IFNg 45 min, tetramer; 4 ul cell extract + 8 ul EMSA reaction buffer (composition and pH not given) with 1 ng 33P probe, 15 min RT; 4.8% 29:1 acrylamide gel at 4 C, 400 V; protein in an extract; label: 33P (Klenow end-fill)

Protein sequences, listed by entry. Tags and fused reporters are not part of them. Residues count along the entry.
UniProt P42224, 1-746 R274W/T385A/R602L/Y701F: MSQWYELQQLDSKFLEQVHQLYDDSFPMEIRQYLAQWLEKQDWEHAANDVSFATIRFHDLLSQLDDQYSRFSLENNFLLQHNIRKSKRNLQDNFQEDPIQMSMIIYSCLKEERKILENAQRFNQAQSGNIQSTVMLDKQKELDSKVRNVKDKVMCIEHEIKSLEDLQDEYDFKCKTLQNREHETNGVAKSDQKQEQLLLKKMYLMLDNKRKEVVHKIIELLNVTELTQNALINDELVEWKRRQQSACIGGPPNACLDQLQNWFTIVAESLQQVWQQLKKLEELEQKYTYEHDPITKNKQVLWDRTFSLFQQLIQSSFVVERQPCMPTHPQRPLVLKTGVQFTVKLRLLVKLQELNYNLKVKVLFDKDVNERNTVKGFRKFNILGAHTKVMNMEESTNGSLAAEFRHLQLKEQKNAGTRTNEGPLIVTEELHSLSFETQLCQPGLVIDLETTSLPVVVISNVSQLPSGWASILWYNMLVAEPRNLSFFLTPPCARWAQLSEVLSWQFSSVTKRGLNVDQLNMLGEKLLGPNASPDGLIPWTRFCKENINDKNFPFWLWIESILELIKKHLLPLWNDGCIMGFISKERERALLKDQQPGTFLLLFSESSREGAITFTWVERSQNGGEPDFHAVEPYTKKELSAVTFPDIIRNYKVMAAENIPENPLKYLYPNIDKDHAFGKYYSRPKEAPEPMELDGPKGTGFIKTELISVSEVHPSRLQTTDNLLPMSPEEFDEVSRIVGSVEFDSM
UniProt P42224, 1-746 R602L/Y701F: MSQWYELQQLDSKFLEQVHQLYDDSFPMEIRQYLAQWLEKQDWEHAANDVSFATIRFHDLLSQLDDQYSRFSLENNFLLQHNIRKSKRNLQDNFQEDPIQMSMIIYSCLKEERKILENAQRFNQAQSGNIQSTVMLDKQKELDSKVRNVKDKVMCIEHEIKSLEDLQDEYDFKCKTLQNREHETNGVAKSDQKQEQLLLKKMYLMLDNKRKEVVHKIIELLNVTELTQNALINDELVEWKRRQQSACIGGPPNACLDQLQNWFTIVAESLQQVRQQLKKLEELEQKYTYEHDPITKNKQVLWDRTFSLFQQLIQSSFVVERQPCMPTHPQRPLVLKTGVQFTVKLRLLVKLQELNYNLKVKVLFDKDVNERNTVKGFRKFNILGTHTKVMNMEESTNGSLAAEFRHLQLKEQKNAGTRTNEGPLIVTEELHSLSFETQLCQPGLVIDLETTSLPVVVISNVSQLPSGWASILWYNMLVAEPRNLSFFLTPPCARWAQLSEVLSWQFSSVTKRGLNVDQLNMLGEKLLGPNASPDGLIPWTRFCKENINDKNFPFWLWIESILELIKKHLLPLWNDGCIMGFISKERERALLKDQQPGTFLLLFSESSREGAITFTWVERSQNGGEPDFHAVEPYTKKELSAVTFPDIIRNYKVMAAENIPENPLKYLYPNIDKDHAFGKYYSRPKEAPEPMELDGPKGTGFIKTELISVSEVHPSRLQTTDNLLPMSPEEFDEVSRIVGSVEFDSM
UniProt P42224, 1-746: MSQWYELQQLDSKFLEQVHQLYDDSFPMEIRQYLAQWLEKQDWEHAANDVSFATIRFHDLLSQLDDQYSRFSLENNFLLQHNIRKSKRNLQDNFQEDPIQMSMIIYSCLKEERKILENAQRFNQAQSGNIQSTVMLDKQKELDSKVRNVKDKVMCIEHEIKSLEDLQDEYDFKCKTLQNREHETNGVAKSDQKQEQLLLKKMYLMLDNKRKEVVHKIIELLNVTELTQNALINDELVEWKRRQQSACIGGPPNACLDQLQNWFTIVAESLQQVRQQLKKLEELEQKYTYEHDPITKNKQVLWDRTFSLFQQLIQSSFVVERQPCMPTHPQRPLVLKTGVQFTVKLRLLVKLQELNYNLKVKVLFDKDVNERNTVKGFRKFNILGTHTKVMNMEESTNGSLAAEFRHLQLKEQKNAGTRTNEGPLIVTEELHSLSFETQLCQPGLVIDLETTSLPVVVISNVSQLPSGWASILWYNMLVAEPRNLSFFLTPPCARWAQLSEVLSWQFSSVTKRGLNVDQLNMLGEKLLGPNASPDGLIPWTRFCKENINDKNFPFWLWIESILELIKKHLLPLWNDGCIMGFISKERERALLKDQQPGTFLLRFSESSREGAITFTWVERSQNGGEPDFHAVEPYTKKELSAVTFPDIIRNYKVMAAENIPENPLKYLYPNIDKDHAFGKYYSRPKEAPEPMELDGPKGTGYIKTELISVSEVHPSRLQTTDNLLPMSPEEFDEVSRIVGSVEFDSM

Sequence	binding result ([1]; IFNg, co-expressed with untagged WT, no GFP-tagged STAT1 band)	binding result [2]	binding result [3]	binding result [4]	binding result [5]	binding result ([1]; IFNg 45 min, only tetramers of endogenous STAT1 detected)	binding result [6]	binding result [7]
TTTTCGACATTTCCCGTAAATCTG (double strand) [M67 (single GAS)]	no binding	no binding	binds	binds	binds	–	–	–
TTTTCGTTTCCCCGAAATTGACGGATTTCCCCGAAAC (double strand) [2xGAS (tandem GAS)]	–	–	–	–	–	no binding	binds	binds
